PMC7156728

Molecular target: T1, C-reactive protein (CRP) (human) (UniProt P02741)
T1 sequence: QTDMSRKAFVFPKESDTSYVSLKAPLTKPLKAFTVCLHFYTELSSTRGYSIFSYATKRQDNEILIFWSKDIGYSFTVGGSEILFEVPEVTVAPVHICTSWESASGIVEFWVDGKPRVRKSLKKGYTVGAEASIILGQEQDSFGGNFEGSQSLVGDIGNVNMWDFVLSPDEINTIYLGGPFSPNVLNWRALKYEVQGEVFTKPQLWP
Test: affinity purification with mass spectrometry; plasma (hirudin) of one donor with vehicle or 40 µg/ml purified CRP incubated with MSU crystals (90 mg/ml) 45 min at 37 °C; bound proteins eluted in SDS buffer, whole gel lanes digested, LC-MS, MaxQuant; proteins compared with and without CRP; only the target purified

binding | Substance
binds | complement component C1r (human (endogenous in serum and plasma)) (enzyme)
binds | complement component C1s (human (endogenous in serum and plasma)) (enzyme)

No constants are given. Whether binding was seen depends on the method and setting. In cells and extracts the contact can be indirect. A yes stands for co-enrichment or nearness to the bait. Other partners may have been found.
